The source of these data is the supplement of paper PMC12024529.

For one assay, the system named is HEK293 WT BDD-FVIII-Gluc. Put plainly: secreted FVIII-Gluc luciferase Z-score vs DMSO control; higher = more FVIII-Gluc secretion. The settings on record: 5 µM; 24 h.
Assay [1] deals with HEK293 p.N1941S BDD-FVIII-Gluc. Described as above. Conditions: 5 µM; 24 h.

Where a name gives a salt, the structure may show the parent alone. This is one part of the list. Baselines shift from plate to plate; read single values as rough.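 HEK293 lines stably express B-domain-deleted factor VIII fused to Gaussia luciferase, wild type or a misfolding-prone missense mutant. Scores equal triplicate-well mean luminescence minus DMSO mean, divided by DMSO standard deviation; scores of 2 or higher are hits. Low scores may indicate reduced secretion or worse cell viability.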

On to `C[C@@H](O)[C@H]1C(=O)N2C(C(=O)O)=C(S[C@@H]3CN[C@H](C(=O)N(C)C)C3)[C@H](C)[C@H]12` [Meropenem], for which the figures for the “secreted FVIII-Gluc luciferase Z-score” value (in the assay with HEK293 WT BDD-FVIII-Gluc; in assay [1]) were inactive: -2.78 and inactive: -0.199, respectively.

Regarding `C[C@@H]1CCN(C(=O)CC#N)C[C@@H]1N(C)c1ncnc2[nH]ccc12`, the “secreted FVIII-Gluc luciferase Z-score” value was active: 2.12 in the assay with HEK293 WT BDD-FVIII-Gluc and inactive: 1.67 in assay [1].

For `Cc1ccc(NC(=O)c2ccc(CN3CCN(C)CC3)cc2)cc1Nc1nccc(-c2cccnc2)n1` [Imatinib Mesylate], the “secreted FVIII-Gluc luciferase Z-score” value in the assay on HEK293 WT BDD-FVIII-Gluc was inactive: -2.45; in assay [1], inactive: -6.1.

On to `COC(=O)[C@H](c1ccccc1Cl)N1CCc2sccc2C1` [Clopidogrel (Plavix)], for which the results for the “secreted FVIII-Gluc luciferase Z-score” value (in the assay with HEK293 WT BDD-FVIII-Gluc; in assay [1]) were inactive: -0.763 and inactive: -0.531, respectively.

In the case of `CC[C@]1(O)C[C@H]2CN(CCc3c([nH]c4ccccc34)[C@@](C(=O)OC)(c3cc4c(cc3OC)N(C=O)[C@H]3[C@@](O)(C(=O)OC)[C@H](OC(C)=O)[C@]5(CC)C=CCN6CC[C@]43[C@@H]65)C2)C1` [Vincristine sulfate], the entries for the “secreted FVIII-Gluc luciferase Z-score” value (with HEK293 WT BDD-FVIII-Gluc; in assay [1]) were inactive: -4.12 and inactive: -13.9, respectively.

With `CCCCCCCCCCCCCCCCO` [1-Hexadecanol], the figures for the “secreted FVIII-Gluc luciferase Z-score” value (in the assay on HEK293 WT BDD-FVIII-Gluc; in assay [1]) were inactive: -2.59 and inactive: -1.34, respectively.

Turning to `O=C(O[C@H]1CN2CCC1CC2)N1CCc2ccccc2[C@@H]1c1ccccc1` [Solifenacin succinate], the “secreted FVIII-Gluc luciferase Z-score” value with HEK293 WT BDD-FVIII-Gluc is inactive: -3.53; in assay [1], inactive: -1.32.

Take `COc1ccccc1N1CCN(CCCNc2cc(=O)n(C)c(=O)n2C)CC1` [Urapidil HCl]: the figures for the “secreted FVIII-Gluc luciferase Z-score” value (in the assay with HEK293 WT BDD-FVIII-Gluc; in assay [1]) were inactive: 0.251 and inactive: -1.4, respectively.

In the case of `CN(C)CCC(c1ccc(Cl)cc1)c1ccccn1` (stereo not drawn) [Chlorpheniramine Maleate], the “secreted FVIII-Gluc luciferase Z-score” value in the assay on HEK293 WT BDD-FVIII-Gluc was inactive: -2.51; in assay [1] it was inactive: -0.631.
